Assay [1] addresses T1, ISLR2 (Immunoglobulin superfamily containing leucine-rich repeat protein 2), human, expressed on cells (human) (UniProt Q6UXK2).
T1 sequence (looked up): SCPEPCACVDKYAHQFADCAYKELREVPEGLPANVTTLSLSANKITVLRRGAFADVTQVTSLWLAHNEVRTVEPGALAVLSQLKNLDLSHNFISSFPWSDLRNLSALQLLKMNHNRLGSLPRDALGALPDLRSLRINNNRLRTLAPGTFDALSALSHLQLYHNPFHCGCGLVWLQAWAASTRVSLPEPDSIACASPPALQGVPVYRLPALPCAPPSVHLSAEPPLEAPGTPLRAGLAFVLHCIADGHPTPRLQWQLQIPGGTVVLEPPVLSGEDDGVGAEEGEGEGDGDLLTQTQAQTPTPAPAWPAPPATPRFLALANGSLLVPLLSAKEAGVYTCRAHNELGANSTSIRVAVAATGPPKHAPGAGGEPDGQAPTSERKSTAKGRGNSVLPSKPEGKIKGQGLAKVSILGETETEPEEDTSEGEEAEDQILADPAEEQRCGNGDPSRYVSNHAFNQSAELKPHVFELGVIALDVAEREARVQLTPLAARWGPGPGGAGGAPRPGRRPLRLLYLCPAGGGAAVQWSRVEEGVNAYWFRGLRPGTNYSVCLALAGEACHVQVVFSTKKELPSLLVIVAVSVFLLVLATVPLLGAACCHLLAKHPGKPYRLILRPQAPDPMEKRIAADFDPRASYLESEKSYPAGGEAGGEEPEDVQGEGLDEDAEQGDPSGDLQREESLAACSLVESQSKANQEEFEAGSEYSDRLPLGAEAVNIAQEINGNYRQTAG
Kind of assay: cell-cell FACS screen of the ~400 member library.

By UniProt entry, the sequences of proteins in these tests, tags left out. Where a name states a change or a piece, a line headed by the entry shows the natural chain unless it says otherwise. Residues count along the entry.
UniProt P10586, residues 30-1907: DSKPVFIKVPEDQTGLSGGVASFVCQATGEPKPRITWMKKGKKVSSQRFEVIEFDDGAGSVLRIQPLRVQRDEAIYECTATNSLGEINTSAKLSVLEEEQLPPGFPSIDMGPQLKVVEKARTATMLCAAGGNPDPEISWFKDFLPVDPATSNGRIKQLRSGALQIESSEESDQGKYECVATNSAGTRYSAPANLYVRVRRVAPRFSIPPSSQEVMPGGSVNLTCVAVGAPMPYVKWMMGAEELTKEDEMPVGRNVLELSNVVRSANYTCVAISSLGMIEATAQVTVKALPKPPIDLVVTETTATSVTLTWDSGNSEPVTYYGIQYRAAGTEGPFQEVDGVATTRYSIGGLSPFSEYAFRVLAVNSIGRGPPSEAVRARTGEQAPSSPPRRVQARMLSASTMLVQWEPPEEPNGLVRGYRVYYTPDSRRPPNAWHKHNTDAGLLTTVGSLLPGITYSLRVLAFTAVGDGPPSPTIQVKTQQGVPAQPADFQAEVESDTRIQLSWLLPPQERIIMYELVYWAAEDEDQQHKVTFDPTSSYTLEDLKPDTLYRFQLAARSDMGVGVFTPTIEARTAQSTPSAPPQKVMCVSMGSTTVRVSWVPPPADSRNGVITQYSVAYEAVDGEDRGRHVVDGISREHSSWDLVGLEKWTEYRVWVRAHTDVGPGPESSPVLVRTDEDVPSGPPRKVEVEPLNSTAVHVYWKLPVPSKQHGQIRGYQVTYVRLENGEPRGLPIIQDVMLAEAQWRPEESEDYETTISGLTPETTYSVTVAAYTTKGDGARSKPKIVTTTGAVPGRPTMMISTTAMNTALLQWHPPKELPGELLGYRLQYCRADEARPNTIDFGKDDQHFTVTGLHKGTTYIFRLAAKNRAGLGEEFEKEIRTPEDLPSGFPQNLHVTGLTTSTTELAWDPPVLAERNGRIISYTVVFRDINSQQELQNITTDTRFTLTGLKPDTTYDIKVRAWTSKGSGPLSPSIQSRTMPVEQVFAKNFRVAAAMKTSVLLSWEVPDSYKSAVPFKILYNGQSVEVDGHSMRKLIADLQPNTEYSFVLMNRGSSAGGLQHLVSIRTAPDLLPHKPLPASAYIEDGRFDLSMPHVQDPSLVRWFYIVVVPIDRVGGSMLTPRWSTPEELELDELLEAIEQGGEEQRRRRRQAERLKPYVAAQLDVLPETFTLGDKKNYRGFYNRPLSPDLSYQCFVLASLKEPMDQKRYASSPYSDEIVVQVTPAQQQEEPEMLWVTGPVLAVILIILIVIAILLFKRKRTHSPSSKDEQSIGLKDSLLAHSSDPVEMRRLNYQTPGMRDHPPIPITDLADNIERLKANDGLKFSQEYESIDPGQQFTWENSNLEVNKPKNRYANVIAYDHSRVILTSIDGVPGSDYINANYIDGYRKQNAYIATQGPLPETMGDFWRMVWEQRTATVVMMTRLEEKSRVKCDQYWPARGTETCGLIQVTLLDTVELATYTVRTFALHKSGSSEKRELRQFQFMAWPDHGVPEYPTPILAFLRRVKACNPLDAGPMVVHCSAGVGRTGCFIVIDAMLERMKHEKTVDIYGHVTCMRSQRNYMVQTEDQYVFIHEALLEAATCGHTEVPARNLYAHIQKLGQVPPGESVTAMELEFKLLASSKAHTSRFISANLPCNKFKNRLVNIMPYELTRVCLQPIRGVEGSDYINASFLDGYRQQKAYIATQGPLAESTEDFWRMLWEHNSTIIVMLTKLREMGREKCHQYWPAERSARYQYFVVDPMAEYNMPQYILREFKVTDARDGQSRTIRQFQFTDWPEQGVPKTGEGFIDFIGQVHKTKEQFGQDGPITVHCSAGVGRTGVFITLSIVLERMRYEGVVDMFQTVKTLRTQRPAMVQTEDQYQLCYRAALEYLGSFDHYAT
UniProt P20333: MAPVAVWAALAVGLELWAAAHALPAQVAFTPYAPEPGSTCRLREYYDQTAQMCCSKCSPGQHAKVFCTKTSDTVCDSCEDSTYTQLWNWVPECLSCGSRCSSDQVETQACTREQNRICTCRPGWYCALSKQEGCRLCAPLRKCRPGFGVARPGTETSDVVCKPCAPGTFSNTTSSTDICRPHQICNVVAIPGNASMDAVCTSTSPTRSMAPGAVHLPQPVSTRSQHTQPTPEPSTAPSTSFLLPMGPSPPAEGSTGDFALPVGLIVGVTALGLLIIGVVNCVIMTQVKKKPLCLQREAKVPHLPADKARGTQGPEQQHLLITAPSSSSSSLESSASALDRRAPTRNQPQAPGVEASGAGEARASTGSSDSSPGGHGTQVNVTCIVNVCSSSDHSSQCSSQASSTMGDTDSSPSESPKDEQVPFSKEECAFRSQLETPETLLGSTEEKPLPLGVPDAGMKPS

The target of assay [2] is Monkey ICOS-L (rhesus monkey, Macca mulatta), expressed on HEK 293 cells (rhesus monkey (Macca mulatta)). Description: cell-cell FACS binding assay, GFP vs mCherry HEK 293 cells. (In general: Flow cytometry measures light scatter and fluorescence of single cells or particles in a stream.)
In assay [3] the target is T1, ISLR2 (Immunoglobulin superfamily containing leucine-rich repeat protein 2), human, expressed on cells (human). Description: listed as newly discovered in this disclosure (cell-cell FACS screens).
The target is the same in assay [4]. Kind of assay: high-throughput cell-cell FACS screen.
The target is the same in assay [5]. Kind of assay: cell-cell FACS screen, TNFR-1B-mCherry query cells vs GFP library cells.
The target in assay [6] is PTPR-F, human, expressed on cells (human) (UniProt P10586). Kind of assay: cell-cell FACS screen, NGFR query cells vs GFP library cells.
Assay [7] addresses T2, ISLR2 (Immunoglobulin superfamily containing leucine-rich repeat protein 2), human, expressed on cells (human), Q6UXK2.
T2 chain: T1 sequence (looked up)
Description: listed as newly discovered in this disclosure (cell-cell FACS screens). As to conditions: remark: other sources report otherwise.

The target of assay [8] is T2, ISLR2 (Immunoglobulin superfamily …). Kind of assay: cell-cell FACS screen, B7-1 query cells vs GFP library cells. As to conditions: remark: other sources report otherwise.
For assay [9] the target is unchanged. Kind of assay: cell-cell FACS screen of the ~400 member library. The settings on record: remark: other sources report otherwise.
Assay [10] addresses T3, ISLR, human, expressed on cells (human), O14498.
T3 chain: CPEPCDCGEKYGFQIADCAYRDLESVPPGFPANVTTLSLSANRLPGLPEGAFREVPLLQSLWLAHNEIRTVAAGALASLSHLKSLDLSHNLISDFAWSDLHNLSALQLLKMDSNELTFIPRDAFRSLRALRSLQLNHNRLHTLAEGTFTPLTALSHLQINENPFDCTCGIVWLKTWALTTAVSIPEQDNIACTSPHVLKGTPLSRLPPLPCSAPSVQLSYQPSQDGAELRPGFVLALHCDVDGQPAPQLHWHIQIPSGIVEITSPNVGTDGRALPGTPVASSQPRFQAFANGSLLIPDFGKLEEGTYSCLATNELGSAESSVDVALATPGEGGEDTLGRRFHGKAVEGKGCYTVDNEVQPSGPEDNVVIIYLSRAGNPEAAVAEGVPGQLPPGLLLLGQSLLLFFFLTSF
Kind of assay: cell-cell FACS screen, NGFR query cells vs GFP library cells. As to conditions: remark: other sources report otherwise.

These are yes or no findings as the source states them, for the method shown. Some entries that bind do so weakly or less than the wild type.

Turning to “tumor necrosis factor receptor 1B (TNFR-1B), human, expressed on HEK 293 cells (from UniProt P20333 23-461)”, the binding result in assay [1], in [2], in assay [3], in assay [4] and in assay [5] was “binds” each time.

With “NGFR, human, expressed on cells (from UniProt P08138 29-427) (receptor)”, the binding result in [6] is “binds”.

B1: B7-1, human, expressed on cells (ligand, UniProt P33681 35-288, looked up)
chain: VIHVTKEVKEVATLSCGHNVSVEELAQTRIYWQKEKKMVLTMMSGDMNIWPEYKNRTIFDITNNLSIVILALRPSDEGTYECVVLKYEKDAFKREHLAEVTLSVKADFPTPSISDFEIPTSNIRRIICSTSGGFPEPHLSWLENGEELNAINTTVSQDPETELYAVSSKLDFNMTTNHSFMCLIKYGHLRVNQTFNWNTTKQEHFPDNLLPSWAITLISVNGIFVICCLTYCFAPRCRERRRNERLRRESVRPV
notes: whole, on cells
B1: the binding entry in [7], in assay [8] and in [9] was “binds” in each case.

B2: NGFR, human, expressed on cells, P08138 29-427 (receptor, UniProt P08138 29-427, looked up)
chain: KEACPTGLYTHSGECCKACNLGEGVAQPCGANQTVCEPCLDSVTFSDVVSATEPCKPCTECVGLQSMSAPCVEADDAVCRCAYGYYQDETTGRCEACRVCEAGSGLVFSCQDKQNTVCEECPDGTYSDEANHVDPCLPCTVCEDTERQLRECTRWADAECEEIPGRWITRSTPPEGSDSTAPSTQEPEAPPEQDLIASTVAGVVTTVMGSSQPVVTRGTTDNLIPVYCSILAAVVVGLVAYIAFKRWNSCKQNKQGANSRPVNQTPPPEGEKLHSDSGISVDSQSLHDQQPHTQTASGQALKGDGGLYSSLPPAKREEVEKLLNGSAGDTWRHLAGELGYQPEHIDSFTHEACPVRALLASWATQDSATLDALLAALRRIQRADLVESLCSESTATSPV
For the molecule B2, the binding result in [10] is “binds”.

For the origin of these results see patent US20180273604A1 (ALBERT EINSTEIN COLLEGE OF MEDICINE, published 2018).
